According to PubChem BioAssay AID1347076 (National Center for Advancing Translational Sciences (NCATS), 2019):
In all, about 400,000 compounds went through this assay and about 13,000 (3.2%) were called active. This list was built around the results that the source calls inconclusive (neither active nor inactive); the mix of calls is not that of the screen. The call rests on the fitted dose curve; in most records, active means well fitted cell-killing curve with a large enough effect; inconclusive means small, poorly fitted or top-dose-only effect, or effect the other way; inactive means flat fitted curve, though single readings scatter. Potencies beside an inconclusive call are fits to weak or partial responses and may not hold up.

Test: qHTS assay for MDR1-selective chemotherapeutics: Primary screen using the drug-selected MDR subline cells KB-V1; further: nearly all actives have a fitted effect of over 60% in size
Conditions: KB-V1 MDR cells viability, CellTiter-Glo, 72 h; series mostly up to 46.1 µM
In short: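 Compound-treated KB-V1 multidrug-resistant cells, 72 h, 37 degrees C; viability by CellTiter-Glo. Fitted qHTS curves give the values.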
Potency means the concentration at half of the fitted maximal effect.

SMILES | Potency
Cn1cc(S(=O)(=O)N2CCCCCC2)cc1C(=O)N1CCN(c2ccccc2F)CC1 | inactive
COc1ccc(C2SC[C@@H](C(=O)O)N2C(C)=O)cc1 (some centres undefined) | inconclusive: 13 µM [rising, partial curve]
COc1ccc(CCNc2ncnc3onc(-c4ccc(Cl)cc4)c23)c(OC)c1 | inconclusive: 32.6 µM [cytotoxic, partial curve, poor fit]
CCc1ccc(NC(=O)CN2C(=O)C3CCCN3c3ccc(S(=O)(=O)N(CC)CC)cc32)cc1 (centres undefined) | inactive
N#C/C(=C\c1cccs1)Sc1nc2ccccc2s1 | inconclusive: 18.4 µM [cytotoxic, single point]
OCC(O)C(O)C(O)C(O)C=Nc1ccc(/C=C/c2ccnc3ccccc23)cc1 (centres undefined) | inconclusive: 32.6 µM [cytotoxic, single point]
Cc1ccc2oc(=S)n(C)c2c1 | inactive
CCC(C)(C)NC(=O)C(c1cccc(OC)c1OC)N(CC(C)C)C(=O)CCC(=O)Nc1cc(C)on1 (centres undefined) | inconclusive: 18.4 µM [cytotoxic, partial curve, poor fit]
O=C(CN1CCc2ccccc2C1)N1CCN(S(=O)(=O)c2ccccc2)CC1 | inconclusive: 9.2 µM [cytotoxic, partial curve]
CCc1ccc(/C=N/NC(=S)NCCc2ccccc2)cc1 | inactive
Cc1ccc(S(=O)(=O)N2CC3=C(C2)C2CC2(C)C3)cc1 (centres undefined) | inconclusive: 20.6 µM [cytotoxic, single point]
CCN(CC(=O)NCc1cccs1)C(=O)c1ccc(-c2cccc(C(F)(F)F)c2)o1 | inactive
O=C(COc1ccc(-c2ccccc2)cc1)N1CCN(C(=O)c2cccnc2)CC1 | inconclusive: 18.4 µM [cytotoxic, partial curve]
COc1ccc(C(=O)Nc2nc(N3C(=O)c4ccccc4C3=O)n(-c3ccccc3)n2)cc1 | inactive
CCn1c(SCC(=O)NCc2ccccc2)nc2c(c1=O)SC(C)C2 (centres undefined) | inconclusive: 0.366 µM [rising, full curve, poor fit]
Cc1ccccc1Oc1nc2ccccn2c(=O)c1/C=C(\C#N)C(=O)Nc1c(C)n(C)n(-c2ccccc2)c1=O | inactive
COc1cccc2ccc(CC(O)(c3ccccc3)c3ccccc3)nc12 | inactive
COc1ccc(-c2noc(C3CCCN(S(=O)(=O)c4cccc(Cl)c4C)C3)n2)cc1OC (centres undefined) | active: 18.4 µM
O=C(CCl)Nc1cc(SCC(O)CO)cc([N+](=O)[O-])c1 (centres undefined) | inconclusive: 29.1 µM [cytotoxic, single point]
COc1cc([N+](=O)[O-])ccc1NC(=O)Nc1cnccn1 | inconclusive: 4.61 µM [cytotoxic, partial curve]
Cc1cc(NC(=O)CSc2nc(-c3cccc(F)c3)nc3c2c(=O)n(C)c(=O)n3C)no1 | inactive
Cc1[nH]c(C)c(S(=O)(=O)Nc2ccc(OC(F)(F)F)cc2)c1C(=O)N1CCCCC1 | inactive

Three records picked at random from those above:
SMILES | Potency
COc1ccc(C(=O)Nc2nc(N3C(=O)c4ccccc4C3=O)n(-c3ccccc3)n2)cc1 | inactive
Cc1cc(NC(=O)CSc2nc(-c3cccc(F)c3)nc3c2c(=O)n(C)c(=O)n3C)no1 | inactive
Cn1cc(S(=O)(=O)N2CCCCCC2)cc1C(=O)N1CCN(c2ccccc2F)CC1 | inactive

The listing continues.

SMILES | Potency
Cc1ccc(NC(=O)c2cc3ccccc3o2)cc1 | inactive
Cc1ccc(CN2C3CCCC2CC(NC(=O)c2ccc(C)cc2)C3)cc1 (centres undefined) | inactive
O=C(Cn1nc(C(=O)O)c2ccccc2c1=O)Nc1cccc(S(=O)(=O)N2CCCCC2)c1 | inconclusive: 29.1 µM [rising, single point]
Cc1ccc(Nc2nc(NCC3CCCO3)nc(N)c2[N+](=O)[O-])cc1 (centres undefined) | active: 20.6 µM
CCOC(=O)c1ccc(N2CC3=C(C2=O)C(c2ccc(OC)cc2)NC(=O)N3C)cc1 (centres undefined) | inactive
O=C1CN(C(=O)COC(=O)c2ccc([N+](=O)[O-])o2)c2ccccc2N1 | inconclusive: 20.6 µM [cytotoxic, single point]
Cc1cccc(C(=O)N2CCCN(C(=O)c3cccc(C)c3)CC2)c1 | inconclusive: 20.6 µM [cytotoxic, partial curve]
O=C(Nc1ccc2nc3n(c(=O)c2c1)CCCC3)c1cccc(F)c1 | inactive
COc1ccc(C(CNc2ncnc3sccc23)N(C)C)cc1OC (centres undefined) | inconclusive: 20.6 µM [cytotoxic, partial curve, poor fit]
COc1ccc(CNC(=O)C2(C)Cc3c(-c4cccc(C(N)=O)c4)ccnc3O2)cc1OC (centres undefined) | inactive
Cc1ccc2cc(CN(CCCN(C)C)C(=S)NCc3ccccc3)c(=O)[nH]c2c1C | inconclusive: 7.31 µM [cytotoxic, partial curve, poor fit]
N=C(N)c1ccc(O)cc1 | inconclusive: 29.1 µM [cytotoxic, single point]
CCOC(=O)N1CCN(CCC(=O)c2ccc(Cl)cc2)CC1 | inconclusive: 32.6 µM [cytotoxic, single point]
CC(C)(C)c1ccc(CC(=O)N2CCC2(C)C(=O)NCc2cccs2)cc1 (centres undefined) | inconclusive: 14.6 µM [cytotoxic, partial curve]
Cc1ccnc(N2CCN(C(=O)CSc3nc4ccccc4nc3N3CCC(C)CC3)CC2)c1 | inactive
Cc1cc(Cl)ccc1OCCCC(=O)N1CCOCC1 | inconclusive: 23.1 µM [cytotoxic, partial curve, poor fit]
CCOC(=O)c1c(C)n(C)c2ccc(OCC(N)=O)cc12 | inconclusive: 18.4 µM [cytotoxic, single point]
COc1cccc(-c2nc(SCc3cccc(Br)c3)n3[nH]c(=O)cc3n2)c1 | inconclusive: 29.1 µM [rising, single point]
CC(=O)c1cccc(N(C(=O)c2ccco2)C(C(=O)NC2CCCCC2)c2ccc(C)o2)c1 (centres undefined) | inconclusive: 9.2 µM [cytotoxic, partial curve]
CCCCc1c(C)c(C#N)c2nc3ccccc3n2c1Nc1c(C)n(C)n(-c2ccccc2)c1=O | inconclusive: 18.4 µM [cytotoxic, single point]
COc1ccc(/C=N/OCC(=O)Nc2ccc3c(c2)OCO3)c(OC)c1 | inconclusive: 20.6 µM [cytotoxic, single point]
CCc1ccccc1NC(=O)CN(C)C(=O)c1cc(C2CC2)nc2c1cnn2C(C)C | inconclusive: 18.4 µM [cytotoxic, single point]
